“Also recorded” adds a separate entry of the source.
Test system: Sprague-Dawley rats
Experiment: Biocompatibility study, gel injected into intra-gluteal muscle pocket
Format: in vivo
Conditions: 100 μl gel, rat
Experimental: A biocompatibility study was performed on Gly-Val-Ala-Val-Ala-Val-Ala-Glu-Gly-Glu (SEQ ID NO: 4), Gly-Phe-Gly-Phe-Gly-Phe-Gly-Glu-Gly-Glu (SEQ ID NO: 5) and Gly-Phe-Gly-Phe-Gly-Phe-Gly-Gln-Gln-Ser (SEQ ID NO: 8) DPAs. Lyophilized DPA powders were e-beam sterilized in 1.5 cc polypropylene cryovials at 15 KGy. Gels were pre-formed in 1 cc syringes by mixing a 4 wt % DPA solution in water for injection in a 1:1 ratio with DMEM followed by immediate aspiration into the syringe. In the case of the formulations with the Glu-Gly-Glu (SEQ ID NO: 27) sequence in the solubility enhancing region, 10 μl of a sterile 100 mg/cc calcium chloride solution was mixed in before aspiration into the syringe. An intra-gluteal muscle pocket was created in Sprague-Dawley rats after which 100 μl of gel was injected using a catheter fitted to the syringe. Subsequently, the pocket was closed with polyglactin 910 sutures sold under the tradename VICRYL (Ethicon, Somerville, N.J.). Tissue was harvested at 3, 7 and 28 days after implantation.

SMILES	Detection of gel at implant site after 28 days	Detection of gel at implant site after 28 days (listed as Gly-Phe-Gly-Phe-Gly-Phe-Gly-Gln-Gly-Gln (SEQ ID NO: 40))	Detection of gel at implant site after 28 days (listed as Val-Ala-Val-Ala-Val-Ala-Glu-Gly-Glu (SEQ ID NO: 39))
CCCCCCCCCCCCCCCC(=O)NC(C(=O)NCC(=O)N[C@@H](Cc1ccccc1)C(=O)NCC(=O)N[C@@H](Cc1ccccc1)C(=O)NCC(=O)N[C@@H](Cc1ccccc1)C(=O)NCC(=O)N[C@@H](CCC(N)=O)C(=O)N[C@@H](CCC(N)=O)C(=O)N[C@@H](CO)C(=O)O)C(=O)NCC(=O)N[C@@H](Cc1ccccc1)C(=O)NCC(=O)N[C@@H](Cc1ccccc1)C(=O)NCC(=O)N[C@@H](Cc1ccccc1)C(=O)NCC(=O)N[C@@H](CCC(N)=O)C(=O)N[C@@H](CCC(N)=O)C(=O)N[C@@H](CO)C(=O)O [Gly-Phe-Gly-Phe-Gly-Phe-Gly-Gln-Gln-Ser]	no longer detected	no gel could be detected	
CCCCCCCCCCCCCCCC(=O)NC(C(=O)NCC(=O)N[C@@H](Cc1ccccc1)C(=O)NCC(=O)N[C@@H](Cc1ccccc1)C(=O)NCC(=O)N[C@@H](Cc1ccccc1)C(=O)NCC(=O)N[C@@H](CCC(=O)O)C(=O)NCC(=O)N[C@@H](CCC(=O)O)C(=O)O)C(=O)NCC(=O)N[C@@H](Cc1ccccc1)C(=O)NCC(=O)N[C@@H](Cc1ccccc1)C(=O)NCC(=O)N[C@@H](Cc1ccccc1)C(=O)NCC(=O)N[C@@H](CCC(=O)O)C(=O)NCC(=O)N[C@@H](CCC(=O)O)C(=O)O [Gly-Phe-Gly-Phe-Gly-Phe-Gly-Glu-Gly-Glu]	no longer detected; also recorded: no gel could be detected		
CCCCCCCCCCCCCCCC(=O)NC(C(=O)NCC(=O)N[C@H](C(=O)N[C@@H](C)C(=O)N[C@H](C(=O)N[C@@H](C)C(=O)N[C@H](C(=O)N[C@@H](C)C(=O)N[C@@H](CCC(=O)O)C(=O)NCC(=O)N[C@@H](CCC(=O)O)C(=O)O)C(C)C)C(C)C)C(C)C)C(=O)NCC(=O)N[C@H](C(=O)N[C@@H](C)C(=O)N[C@H](C(=O)N[C@@H](C)C(=O)N[C@H](C(=O)N[C@@H](C)C(=O)N[C@@H](CCC(=O)O)C(=O)NCC(=O)N[C@@H](CCC(=O)O)C(=O)O)C(C)C)C(C)C)C(C)C [Gly-Val-Ala-Val-Ala-Val-Ala-Glu-Gly-Glu]	no longer detected		no gel could be detected
